Non-standard residues stand in square brackets, D forms with d.

Data set [1] in a line: general procedure: Fmoc solid-phase peptide synthesis; Fmoc-NH-SAL-PEG resin; DIC-HOBt; HBTU/DIEA; DIC/HOOBt. The conditions noted are these: whole synthesis, scale 11 μmol resin portion cleaved.
Data set [2] can be described thus: general procedure: Fmoc solid-phase peptide synthesis; Fmoc-NH-SAL-PEG resin (Rink amide); DIC-HOBt; HBTU/DIEA; DIC/HOOBt. The conditions noted are these: for isolated mass / isolated yield: whole synthesis.
[3] abbreviates: scale 6.3 μmol resin portion cleaved.
The mark [4] stands for this setting: scale 7.6 μmol resin portion cleaved.
Setting [5] is: scale 8.8 μmol resin portion cleaved.

With H-Cys-Arg-Gly-Asp-Cys-D-Pro-OCH2CONH2, in data set [1], the isolated mass was 2.6 mg and the isolated yield is recorded as 34%.
In data set [2] (setting [3]), H-Cys-Arg-Gly-Asp-D-Cys-Pro-OCH2CONH2 returned an isolated mass of 1.3 mg and an isolated yield of 29%.
As for H-D-Cys-Arg-Gly-Asp-Cys-D-Pro-OCH2CONH2, in data set [2] (setting [4]), the isolated mass came to 1.8 mg and the isolated yield was found to be 31%.
In data set [2] (setting [5]), H-D-Cys-Arg-Gly-Asp-D-Cys-Pro-OCH2CONH2 yielded an isolated mass of 1.8 mg and an isolated yield of 29%.
For the substance “cyclo(CRGDC[dP]) (cysteine pairing not given here)”, in data set [2] (cyclisation step, on linear precursor 2a), the cyclisation yield was 59%.

The values above are taken from publication PMC11169864 (Frontiers in Chemistry, 2024).
